Values of other authors as cited in EP2862852B1, “Urea derivatives for the protection of stem cells” (Symrise AG, priority 2013, dated 2015).

Details: water (20° dH) at 20 °C; solid active agent; cited from earlier work

For `Nc1nc2c(ncn2COCCO)c(=O)[nH]1` [Acyclovir, 2-Amino-1,9-dihydro-9-((2-hydroxyethoxy)methyl)-6H-Purin-6-one], the solubility in water is given as “less than 5 g/L”.
